Laboratory results: PubChem BioAssay AID686938 (Drosophila RNAi Screening Center, 2013)

Aim: 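Looking for CRAC channel components and the factors controlling them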 (primary screen)
System: Drosophila S2R+ cells
Reagents: long dsRNA against Drosophila genes, about 0.25 µg dsRNA per well, roughly 10,000 cells
Time to read-out: 5 days of knock-down before the calcium assay
Challenge: thapsigargin (SERCA pump blocker) to empty calcium stores; entry signal taken 4 min after adding it
Measured: 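Per-well fluo-4 fluorescence in two replicates, unnormalised, measured in resting cells and 4 min after store depletion by the SERCA blocker thapsigargin; ratio of the two present in few wells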
Reading the numbers: calcium entry signal: higher = stronger calcium signal after store depletion; entry to resting ratio: higher = more calcium entry relative to resting level; resting calcium signal: higher = higher resting calcium signal
Units: calcium entry signal in fluorescence units; resting calcium signal in fluorescence units
Hit rule: 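Hit if the duplicate-averaged plate z-score for entry over resting signal is under −3; wells with weak total dye signal (Fmax z < −2) or more than 5 off-targets removed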
Meaning of the calls: active = strongly reduced calcium entry; inactive = no strong reduction
The screen tested about 23,000 reagents; this is a random part of those with a known target gene and a result. In the full data, 75 (0.33%) got an active call. 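Raw plate signals without normalisation; calls rest on plate z-scores that were not deposited; ratio present for only 364 wells.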 The record does not give: the dose of the treatment.

CG30156 gave calcium entry signal, replicate 1 = 1.75e7; calcium entry signal, replicate 2 = 2.63e7; resting calcium signal, replicate 1 = 9.58e6; resting calcium signal, replicate 2 = 1.18e7; inactive.
CG13698 gave calcium entry signal, replicate 1 = 4.70e7; calcium entry signal, replicate 2 = 5.69e7; resting calcium signal, replicate 1 = 2.12e7; resting calcium signal, replicate 2 = 3.76e7; inactive.
Knock-down of CG14054 resulted in: calcium entry signal, replicate 1 = 4.86e7; calcium entry signal, replicate 2 = 6.40e7; entry to resting ratio 1.9; resting calcium signal, replicate 1 = 2.50e7; resting calcium signal, replicate 2 = 2.55e7; inactive.
Depletion of NAT1 came out at: calcium entry signal, replicate 1 = 3.19e7; calcium entry signal, replicate 2 = 5.07e7; resting calcium signal, replicate 1 = 2.49e7; resting calcium signal, replicate 2 = 2.66e7; inactive.
CG14966 showed calcium entry signal, replicate 1 = 3.61e7; calcium entry signal, replicate 2 = 3.00e7; resting calcium signal, replicate 1 = 1.93e7; resting calcium signal, replicate 2 = 1.51e7; inactive.
Silencing of byn (brachyenteron) came out at: calcium entry signal, replicate 1 = 3.11e7; calcium entry signal, replicate 2 = 4.51e7; resting calcium signal, replicate 1 = 1.54e7; resting calcium signal, replicate 2 = 1.88e7; inactive.
For HP4 (Heterochromatin protein 4) the deposit lists calcium entry signal, replicate 1 = 4.60e7; calcium entry signal, replicate 2 = 3.55e7; resting calcium signal, replicate 1 = 3.16e7; resting calcium signal, replicate 2 = 1.47e7; inactive.
Against CG33309, the values are calcium entry signal, replicate 1 = 2.97e7; calcium entry signal, replicate 2 = 4.55e7; resting calcium signal, replicate 1 = 1.74e7; resting calcium signal, replicate 2 = 2.12e7; inactive.
CG32055 scored calcium entry signal, replicate 1 = 3.69e7; calcium entry signal, replicate 2 = 2.18e7; resting calcium signal, replicate 1 = 2.60e7; resting calcium signal, replicate 2 = 1.02e7; inactive.
Depletion of Tace gave: calcium entry signal, replicate 1 = 2.91e7; calcium entry signal, replicate 2 = 4.18e7; resting calcium signal, replicate 1 = 1.37e7; resting calcium signal, replicate 2 = 1.84e7; inactive.
Khc-73 (Kinesin heavy chain 73) scored calcium entry signal, replicate 1 = 3.09e7; calcium entry signal, replicate 2 = 3.05e7; resting calcium signal, replicate 1 = 1.36e7; resting calcium signal, replicate 2 = 1.44e7; inactive.
With knock-down of CG13991, the screen gave calcium entry signal, replicate 1 = 3.80e7; calcium entry signal, replicate 2 = 4.16e7; resting calcium signal, replicate 1 = 1.85e7; resting calcium signal, replicate 2 = 1.93e7; inactive.
